Here are results for two molecules from doi:10.1101/310227.

These are yes or no findings as the source states them, for the method shown. Binding seen in cells or lysates may run through a third protein. A result given as binding can be weak or reduced; the word gives no strength. Tags and fused reporters may be left off the sequences shown.

The test concerns the target FimA, shaft pilin of Actynomyces oris (Actynomyces oris).

B1: Isopeptide-K blocker (FimA CnaB domain β-strandA mimic), Halo-tagged (peptide)
chain: MEFWGDLLIKKVDNHQQGHGVRSEDLYFQSDNTTPE
Take B1: the binding result is “binds”.

B2: Isopeptide-N blocker (FimA CnaA domain β-strandI1 mimic), Halo-tagged (peptide)
chain: MEFARNGAITNRAQVISDHGVRSEDLYFQSDNTTPE
As to B2, the binding result is “binds”.
